# PubChem BioAssay AID1159578 | Peter MacCallum Cancer Centre – 2015
# Aim: 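Genome-wide hunt for genes controlling movement of lymphatic endothelial cells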 (primary screen)
# System: human lymphatic endothelial cells
# Reagent: siRNA pool against human genes, 40 nM
# Timing: 48 h after transfection
# Read-out: 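Cells stained with dye and imaged after a scratch; covered wound area and nuclei counted, duplicates averaged, migration set against mock wells and turned into a robust z-score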
# Scale: migration robust z-score: higher = faster migration into the scratch; migration relative to mock: higher = more scratch area covered than mock; nuclei per well: higher = more cells in the well
# Call rule: 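Migration changed when robust z exceeds 2 or falls below -2 and mean nuclei number is at least 3300; otherwise not called changed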
# Calls: active = migration changed; inactive = no migration change, or too few cells
# Shown is a random part of about 18,000 reagents. About 1,030 of all reagents (5.7%) count as active. 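Inactive calls also include pools with fewer than 3300 nuclei, whose migration was not assessed.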 Raw values vary from plate to plate and are shown uncorrected.
gene symbol,migration robust z-score,migration class with cell-count check,migration relative to mock,"nuclei per well, duplicate mean",Outcome
FGD3,-0.44,migration z between -2 and 2; enough cells,0.77,5054,inactive
GPR37,1.29,migration z between -2 and 2; enough cells,1.06,6738,inactive
PNMA8A,-0.86,migration z between -2 and 2; enough cells,0.66,5768,inactive
CTPS2,0.26,migration z between -2 and 2; enough cells,0.86,5948,inactive
CRYBB1,2.66,migration z above 2; enough cells,1.58,7050,active
HILPDA,-0.06,migration z between -2 and 2; enough cells,0.88,6054,inactive
MRAS,0.26,migration z between -2 and 2; enough cells,0.86,6225,inactive
GFRA4,-0.8,migration z between -2 and 2; enough cells,0.65,4286,inactive
PRKG1,-1.09,migration z between -2 and 2; enough cells,0.6,5356,inactive
TLX2,-0.88,migration z between -2 and 2; enough cells,0.64,5763,inactive
RWDD3,0.68,migration z between -2 and 2; enough cells,1.06,7300,inactive
SYNE4,0,migration z between -2 and 2; enough cells,0.88,6016,inactive
AKIRIN2,0.86,migration z between -2 and 2; enough cells,1.11,5006,inactive
PLRG1,-0.9,migration z between -2 and 2; enough cells,0.63,5341,inactive
FAM110D,-0.36,migration z between -2 and 2; enough cells,0.79,6594,inactive
CEP350,1.21,migration z between -2 and 2; enough cells,1.2,5438,inactive
PRR23B,-0.08,migration z between -2 and 2; enough cells,0.86,5839,inactive
BRMS1L,0.47,migration z between -2 and 2; enough cells,1.01,4841,inactive
MAL2,-0.62,migration z between -2 and 2; enough cells,0.72,5190,inactive
ZNF625,-0.83,migration z between -2 and 2; enough cells,0.67,4880,inactive
CT47A6,-0.52,migration z between -2 and 2; enough cells,0.76,6927,inactive
ZNF28,1.07,migration z between -2 and 2; enough cells,1.17,5930,inactive
C19orf48P,0.86,migration z between -2 and 2; enough cells,1.11,5976,inactive
FHIT,-0.36,migration z between -2 and 2; enough cells,0.74,4751,inactive
KRTAP22-1,0.19,migration z between -2 and 2; enough cells,0.94,4991,inactive
PARK7,-1.42,migration z between -2 and 2; enough cells,0.52,4282,inactive
OCM2,-0.27,migration z between -2 and 2; enough cells,0.82,4853,inactive
SYT16,-0.2,migration z between -2 and 2; enough cells,0.83,5768,inactive
NTF3,-0.88,migration z between -2 and 2; enough cells,0.64,5162,inactive
PRKRIP1,0.11,migration z between -2 and 2; enough cells,0.82,5807,inactive
EBNA1BP2,-0.6,migration z between -2 and 2; enough cells,0.73,4374,inactive
CHRM5,-0.52,migration z between -2 and 2; enough cells,0.7,6694,inactive
HJV,0.46,migration z between -2 and 2; enough cells,1,5820,inactive
COX4I2,1.04,migration z between -2 and 2; enough cells,1.01,4135,inactive
SRPK1,0.03,migration z between -2 and 2; enough cells,0.81,5590,inactive
NR2F6,-1.5,migration z between -2 and 2; enough cells,0.52,5098,inactive
RBM38,1.6,migration z between -2 and 2; enough cells,1.3,4626,inactive
TRIM67,0.57,migration z between -2 and 2; enough cells,0.92,6285,inactive
SDK2,-1.57,migration z between -2 and 2; enough cells,0.48,5798,inactive
PM20D2,-0.35,migration z between -2 and 2; enough cells,0.8,6058,inactive
RASGRP3,-0.92,migration z between -2 and 2; enough cells,0.64,5854,inactive
SPACA7,1.5,migration z between -2 and 2; enough cells,1.27,5959,inactive
CLMP,1.01,migration z between -2 and 2; enough cells,1.15,6560,inactive
SPDYA,-2.45,migration z below -2; enough cells,0.25,5488,active
SLC15A3,0.03,migration z between -2 and 2; enough cells,0.9,7447,inactive
NDUFS5,-1.5,migration z between -2 and 2; enough cells,0.52,5959,inactive
NT5C2,0.26,migration z between -2 and 2; enough cells,0.86,5916,inactive
STRA8,0.11,migration z between -2 and 2; enough cells,0.92,4232,inactive
SLC26A7,0.08,migration z between -2 and 2; enough cells,0.82,5542,inactive
ZSWIM1,-0.7,migration z between -2 and 2; enough cells,0.7,3819,inactive
QPRT,0.49,migration z between -2 and 2; enough cells,0.9,5516,inactive
COL4A6,1.1,migration z between -2 and 2; enough cells,1.17,6592,inactive
PSCA,0.14,migration z between -2 and 2; enough cells,0.92,5268,inactive
SH3TC1,-0.04,migration z between -2 and 2; enough cells,0.88,5060,inactive
ZNF91,-1.38,migration z between -2 and 2; enough cells,0.52,5976,inactive
AGFG2,-0.68,migration z between -2 and 2; enough cells,0.71,5774,inactive
SPDL1,1,migration z between -2 and 2; enough cells,1.15,4591,inactive

Just “migration robust z-score” (3 entries from above):
GFRA4 = -0.8
PRKG1 = -1.09
TLX2 = -0.88
